Measured values published in the supplement of paper PMC10849652.
Some of the results follow.

Amino acid sequences for entries named in this document (tags omitted). A change or cut given only in a name is not applied to a line headed by its entry.
UniProt O95202: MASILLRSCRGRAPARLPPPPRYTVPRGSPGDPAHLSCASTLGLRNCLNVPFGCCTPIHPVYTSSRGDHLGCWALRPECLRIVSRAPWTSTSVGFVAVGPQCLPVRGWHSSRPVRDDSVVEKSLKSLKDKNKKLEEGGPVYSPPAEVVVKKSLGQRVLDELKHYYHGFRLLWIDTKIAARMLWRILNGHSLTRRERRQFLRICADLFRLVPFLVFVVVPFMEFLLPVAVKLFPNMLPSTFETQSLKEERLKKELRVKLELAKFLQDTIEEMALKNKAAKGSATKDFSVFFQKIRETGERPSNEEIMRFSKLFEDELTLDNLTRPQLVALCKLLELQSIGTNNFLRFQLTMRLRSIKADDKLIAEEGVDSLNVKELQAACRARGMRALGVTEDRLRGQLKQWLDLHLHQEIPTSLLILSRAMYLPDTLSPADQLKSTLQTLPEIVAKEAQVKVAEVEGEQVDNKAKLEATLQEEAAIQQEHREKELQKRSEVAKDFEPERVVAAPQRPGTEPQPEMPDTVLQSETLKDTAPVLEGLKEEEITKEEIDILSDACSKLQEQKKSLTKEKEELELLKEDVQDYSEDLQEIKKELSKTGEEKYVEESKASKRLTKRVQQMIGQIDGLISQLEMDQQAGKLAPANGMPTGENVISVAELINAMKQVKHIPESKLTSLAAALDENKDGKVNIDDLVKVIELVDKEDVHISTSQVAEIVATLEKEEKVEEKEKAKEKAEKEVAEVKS
UniProt O75427: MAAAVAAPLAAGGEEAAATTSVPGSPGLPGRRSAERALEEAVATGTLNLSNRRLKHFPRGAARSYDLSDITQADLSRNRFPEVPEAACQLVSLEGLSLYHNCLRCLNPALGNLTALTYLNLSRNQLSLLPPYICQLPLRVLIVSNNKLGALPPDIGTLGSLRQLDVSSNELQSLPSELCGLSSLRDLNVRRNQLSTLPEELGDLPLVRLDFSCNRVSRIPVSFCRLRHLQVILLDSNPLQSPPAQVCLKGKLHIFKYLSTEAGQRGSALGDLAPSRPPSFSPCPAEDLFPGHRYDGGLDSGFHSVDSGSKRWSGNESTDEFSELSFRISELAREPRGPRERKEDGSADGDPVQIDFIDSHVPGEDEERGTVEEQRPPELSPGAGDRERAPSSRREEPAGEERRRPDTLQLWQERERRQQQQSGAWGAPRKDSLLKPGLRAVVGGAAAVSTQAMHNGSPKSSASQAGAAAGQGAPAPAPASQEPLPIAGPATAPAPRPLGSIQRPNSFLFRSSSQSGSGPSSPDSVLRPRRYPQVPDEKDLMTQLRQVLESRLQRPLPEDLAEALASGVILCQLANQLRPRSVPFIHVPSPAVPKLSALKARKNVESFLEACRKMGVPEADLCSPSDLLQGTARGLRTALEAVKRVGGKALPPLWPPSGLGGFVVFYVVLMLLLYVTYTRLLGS
UniProt Q08380: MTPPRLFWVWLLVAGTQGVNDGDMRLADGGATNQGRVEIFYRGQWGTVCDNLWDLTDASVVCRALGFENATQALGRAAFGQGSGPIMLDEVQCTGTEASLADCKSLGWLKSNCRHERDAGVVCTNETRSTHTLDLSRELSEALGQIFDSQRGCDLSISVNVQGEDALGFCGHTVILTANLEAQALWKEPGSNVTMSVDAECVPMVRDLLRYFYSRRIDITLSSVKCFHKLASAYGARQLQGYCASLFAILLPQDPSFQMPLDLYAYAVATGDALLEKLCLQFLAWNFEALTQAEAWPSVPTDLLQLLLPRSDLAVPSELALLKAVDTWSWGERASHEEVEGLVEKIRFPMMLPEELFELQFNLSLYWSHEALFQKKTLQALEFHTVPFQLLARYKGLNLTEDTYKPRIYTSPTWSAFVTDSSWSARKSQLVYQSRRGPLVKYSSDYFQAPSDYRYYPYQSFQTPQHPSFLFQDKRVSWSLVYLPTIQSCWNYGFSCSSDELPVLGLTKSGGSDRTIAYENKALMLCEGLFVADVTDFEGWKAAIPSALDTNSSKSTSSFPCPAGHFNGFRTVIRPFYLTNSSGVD
UniProt Q8ND56: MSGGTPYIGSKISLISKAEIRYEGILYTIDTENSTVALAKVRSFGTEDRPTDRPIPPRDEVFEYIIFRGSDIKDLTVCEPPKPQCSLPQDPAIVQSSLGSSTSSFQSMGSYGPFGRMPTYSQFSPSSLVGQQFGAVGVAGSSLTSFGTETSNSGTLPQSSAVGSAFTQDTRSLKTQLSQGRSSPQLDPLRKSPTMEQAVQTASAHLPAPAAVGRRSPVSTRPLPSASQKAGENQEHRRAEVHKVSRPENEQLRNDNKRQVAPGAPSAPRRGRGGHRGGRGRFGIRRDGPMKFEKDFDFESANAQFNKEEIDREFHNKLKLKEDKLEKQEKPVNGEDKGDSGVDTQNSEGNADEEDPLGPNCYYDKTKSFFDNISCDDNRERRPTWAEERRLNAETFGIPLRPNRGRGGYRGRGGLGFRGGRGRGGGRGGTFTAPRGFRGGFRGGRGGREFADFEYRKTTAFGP
UniProt Q969L4: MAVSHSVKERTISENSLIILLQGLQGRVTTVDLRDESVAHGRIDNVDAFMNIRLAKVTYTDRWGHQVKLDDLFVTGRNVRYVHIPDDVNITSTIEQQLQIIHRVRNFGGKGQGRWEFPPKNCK
UniProt Q14114: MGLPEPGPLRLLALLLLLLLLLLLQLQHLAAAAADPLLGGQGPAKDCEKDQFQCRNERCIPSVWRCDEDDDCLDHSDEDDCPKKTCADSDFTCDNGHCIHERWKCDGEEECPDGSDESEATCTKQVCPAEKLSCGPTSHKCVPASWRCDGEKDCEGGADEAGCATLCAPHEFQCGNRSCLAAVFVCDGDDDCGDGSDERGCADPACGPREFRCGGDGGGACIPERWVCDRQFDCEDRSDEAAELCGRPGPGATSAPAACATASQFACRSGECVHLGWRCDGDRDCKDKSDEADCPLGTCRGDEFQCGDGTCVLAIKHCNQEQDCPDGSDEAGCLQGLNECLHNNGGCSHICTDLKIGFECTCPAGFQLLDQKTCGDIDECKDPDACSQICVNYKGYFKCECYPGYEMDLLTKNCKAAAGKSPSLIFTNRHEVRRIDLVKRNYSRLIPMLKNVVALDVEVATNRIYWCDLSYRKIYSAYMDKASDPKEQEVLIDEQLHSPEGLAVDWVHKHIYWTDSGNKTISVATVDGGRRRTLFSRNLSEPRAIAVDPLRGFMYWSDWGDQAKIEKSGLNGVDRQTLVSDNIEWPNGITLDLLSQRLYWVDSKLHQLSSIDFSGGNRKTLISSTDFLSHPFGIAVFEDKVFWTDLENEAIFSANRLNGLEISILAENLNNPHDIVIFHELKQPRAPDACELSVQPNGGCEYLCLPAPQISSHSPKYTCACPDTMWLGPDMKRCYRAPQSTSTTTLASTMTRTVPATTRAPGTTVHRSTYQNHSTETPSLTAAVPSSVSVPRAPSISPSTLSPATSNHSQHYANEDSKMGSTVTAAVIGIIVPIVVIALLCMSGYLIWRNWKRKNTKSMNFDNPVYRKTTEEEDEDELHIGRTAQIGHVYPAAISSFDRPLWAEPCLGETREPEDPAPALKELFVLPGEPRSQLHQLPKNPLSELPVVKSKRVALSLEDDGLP
UniProt Q9UJU2, whole entry, looked up: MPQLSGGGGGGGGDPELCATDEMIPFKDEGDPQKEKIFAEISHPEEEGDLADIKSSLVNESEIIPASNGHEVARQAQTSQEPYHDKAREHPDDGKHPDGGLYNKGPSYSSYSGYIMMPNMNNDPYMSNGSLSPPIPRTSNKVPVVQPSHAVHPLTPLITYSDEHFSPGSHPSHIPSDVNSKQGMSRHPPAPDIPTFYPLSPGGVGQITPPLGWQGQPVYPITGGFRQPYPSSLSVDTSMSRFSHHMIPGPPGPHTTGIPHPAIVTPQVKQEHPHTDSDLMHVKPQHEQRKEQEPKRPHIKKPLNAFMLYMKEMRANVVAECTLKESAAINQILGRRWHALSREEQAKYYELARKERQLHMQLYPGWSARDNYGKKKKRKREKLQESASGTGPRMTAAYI
UniProt Q8N448: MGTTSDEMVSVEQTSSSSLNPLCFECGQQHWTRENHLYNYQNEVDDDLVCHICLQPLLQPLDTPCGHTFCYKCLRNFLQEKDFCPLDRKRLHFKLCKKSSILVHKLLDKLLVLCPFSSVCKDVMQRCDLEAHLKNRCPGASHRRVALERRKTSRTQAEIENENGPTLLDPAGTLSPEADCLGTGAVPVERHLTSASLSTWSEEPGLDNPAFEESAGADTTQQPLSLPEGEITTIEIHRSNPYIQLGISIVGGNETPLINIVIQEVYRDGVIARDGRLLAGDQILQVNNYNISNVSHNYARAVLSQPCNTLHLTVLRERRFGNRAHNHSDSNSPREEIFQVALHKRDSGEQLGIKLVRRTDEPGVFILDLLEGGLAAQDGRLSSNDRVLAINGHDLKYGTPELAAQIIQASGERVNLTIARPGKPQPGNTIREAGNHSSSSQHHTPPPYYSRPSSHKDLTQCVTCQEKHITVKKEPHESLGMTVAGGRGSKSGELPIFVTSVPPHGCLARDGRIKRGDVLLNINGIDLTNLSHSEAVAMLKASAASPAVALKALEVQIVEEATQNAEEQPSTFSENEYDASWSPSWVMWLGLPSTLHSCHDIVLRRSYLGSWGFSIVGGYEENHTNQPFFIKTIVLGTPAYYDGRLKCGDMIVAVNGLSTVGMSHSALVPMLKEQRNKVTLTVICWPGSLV
UniProt Q9UIQ6, whole entry, looked up: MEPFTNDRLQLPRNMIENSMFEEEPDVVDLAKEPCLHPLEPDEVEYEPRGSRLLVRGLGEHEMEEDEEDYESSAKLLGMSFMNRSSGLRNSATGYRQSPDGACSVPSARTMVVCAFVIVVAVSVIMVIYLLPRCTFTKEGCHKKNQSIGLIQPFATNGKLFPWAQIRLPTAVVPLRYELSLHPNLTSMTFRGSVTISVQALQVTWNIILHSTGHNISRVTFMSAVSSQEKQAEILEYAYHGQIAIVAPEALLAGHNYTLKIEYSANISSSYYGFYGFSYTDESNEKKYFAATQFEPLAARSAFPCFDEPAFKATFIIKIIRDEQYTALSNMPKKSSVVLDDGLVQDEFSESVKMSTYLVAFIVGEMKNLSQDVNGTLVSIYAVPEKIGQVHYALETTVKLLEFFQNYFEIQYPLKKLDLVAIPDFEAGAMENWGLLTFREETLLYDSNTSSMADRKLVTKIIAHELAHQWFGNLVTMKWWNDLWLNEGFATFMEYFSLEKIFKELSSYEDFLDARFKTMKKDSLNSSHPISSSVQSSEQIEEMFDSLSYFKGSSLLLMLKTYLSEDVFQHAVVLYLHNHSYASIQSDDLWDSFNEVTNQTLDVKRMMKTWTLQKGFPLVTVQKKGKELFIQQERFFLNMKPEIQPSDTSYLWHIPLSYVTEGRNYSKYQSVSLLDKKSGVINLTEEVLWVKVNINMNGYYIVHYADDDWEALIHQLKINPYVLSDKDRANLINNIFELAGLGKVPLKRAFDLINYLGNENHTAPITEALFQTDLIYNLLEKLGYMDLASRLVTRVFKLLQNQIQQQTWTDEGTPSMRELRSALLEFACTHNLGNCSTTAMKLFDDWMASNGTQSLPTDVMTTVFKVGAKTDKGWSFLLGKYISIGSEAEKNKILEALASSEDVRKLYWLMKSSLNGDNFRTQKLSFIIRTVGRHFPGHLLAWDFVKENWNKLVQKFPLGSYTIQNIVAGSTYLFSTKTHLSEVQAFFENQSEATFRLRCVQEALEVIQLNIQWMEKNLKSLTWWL
UniProt Q7Z4F1: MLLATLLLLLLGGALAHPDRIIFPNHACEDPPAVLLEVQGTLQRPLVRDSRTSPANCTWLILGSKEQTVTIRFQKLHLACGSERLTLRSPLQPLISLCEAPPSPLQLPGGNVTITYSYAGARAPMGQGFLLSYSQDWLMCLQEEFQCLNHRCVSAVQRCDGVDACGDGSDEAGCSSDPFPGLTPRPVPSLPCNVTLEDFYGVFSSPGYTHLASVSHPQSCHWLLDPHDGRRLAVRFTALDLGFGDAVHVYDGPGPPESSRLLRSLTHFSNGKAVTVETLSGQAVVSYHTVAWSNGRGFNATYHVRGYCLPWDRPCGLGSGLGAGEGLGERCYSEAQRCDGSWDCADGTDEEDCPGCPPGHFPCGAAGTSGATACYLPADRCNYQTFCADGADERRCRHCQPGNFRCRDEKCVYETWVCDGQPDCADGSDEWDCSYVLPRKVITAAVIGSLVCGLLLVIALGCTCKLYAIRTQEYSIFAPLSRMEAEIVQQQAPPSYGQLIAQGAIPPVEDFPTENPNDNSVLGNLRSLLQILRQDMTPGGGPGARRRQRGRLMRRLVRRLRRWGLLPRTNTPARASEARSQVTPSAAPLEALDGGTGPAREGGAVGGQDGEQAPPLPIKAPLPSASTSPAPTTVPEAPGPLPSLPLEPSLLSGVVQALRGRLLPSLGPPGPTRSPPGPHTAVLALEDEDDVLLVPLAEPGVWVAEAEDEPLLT

Legend:
Test in all cases: log2 fold change, soluble protein after heating vs DMSO (PISA); higher = thermal stabilisation; K562 lysate, 10 uM; active = over 0.2 and 3.5 SD of the protein, either way, in both replicates (recomputed)
alvocidib = compound: CN1CC[C@H](c2c(O)cc(O)c3c(=O)cc(-c4ccccc4Cl)oc23)[C@H](O)C1 [alvocidib]
Summary of the method: (§1)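 Quantification was by TMTpro 16plex LC-MS/MS with equalised channel sums, applied to the supernatant after 21,000xg for 90 min. Samples were crude K562 extract at 1 mg/mL protein in PBS pH 7.4 with 1 mM MgCl2, treated with 10 μM compound for 30 min, heated for 3 min across 48°C-58°C, pooled and brought to 0.5% NP-40 at 4°C. Values are log-two fold changes in thermal stability relative to solvent controls, from duplicates.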

Tubastatin A = compound: CN1CCc2c(c3ccccc3n2Cc2ccc(C(=O)NO)cc2)C1 [Tubastatin A]
Summary of the method: as §1

[1] = compound: CNC(=O)C1=CC=CC=C1NC2=NC(=NC=C2Cl)NC3=C(C=C(C=C3)N4CCOCC4)OC
Summary of the method: as §1

defactinib = compound: CNC(=O)c1ccc(Nc2ncc(C(F)(F)F)c(NCc3nccnc3N(C)S(C)(=O)=O)n2)cc1 [defactinib]
Summary of the method: as §1

[2] = compound: CNc1nc(-c2ccc3c(N)n[nH]c3c2)cc(N2C[C@@H](C(=O)NC3CCCCC3)CC[C@H]2C)n1
Summary of the method: as §1

encorafenib = compound: COC(=O)N[C@@H](C)CNc1nccc(-c2cn(C(C)C)nc2-c2cc(Cl)cc(NS(C)(=O)=O)c2F)n1 [encorafenib]
Summary of the method: as §1

[3] = compound: COC(=O)[C@H](CCSC)NC(=O)C1=C(C=C(C=C1)NC[C@H](CS)N)C2=CC=CC=C2
Summary of the method: as §1

alisertib = compound: COc1cc(Nc2ncc3c(n2)-c2ccc(Cl)cc2C(c2c(F)cccc2OC)=NC3)ccc1C(=O)O [alisertib]
Summary of the method: as §1

[4] = compound: COc1cc2nc(-c3cc(F)ccc3O)nc(N[C@@H]3CNC[C@H]3C(C)(C)O)c2cc1OC
Summary of the method: as §1

gefitinib = compound: COc1cc2ncnc(Nc3ccc(F)c(Cl)c3)c2cc1OCCCN1CCOCC1 [gefitinib]
Summary of the method: as §1

lapatinib = compound: CS(=O)(=O)CCNCc1ccc(-c2ccc3ncnc(Nc4ccc(OCc5cccc(F)c5)c(Cl)c4)c3c2)o1 [lapatinib]
Summary of the method: as §1

pictilisib = compound: CS(=O)(=O)N1CCN(Cc2cc3nc(-c4cccc5[nH]ncc45)nc(N4CCOCC4)c3s2)CC1 [pictilisib]
Summary of the method: as §1

crizotinib = compound: C[C@@H](Oc1cc(-c2cnn(C3CCNCC3)c2)cnc1N)c1c(Cl)ccc(F)c1Cl [crizotinib]
Summary of the method: as §1

[5] = compound: C[C@H](C1=CC=C(C=C1)C(=O)NC2=C3C=CNC3=NC=C2)N
Summary of the method: as §1

duvelisib = compound: C[C@H](Nc1ncnc2nc[nH]c12)c1cc2cccc(Cl)c2c(=O)n1-c1ccccc1 [duvelisib]
Summary of the method: as §1

gandotinib = compound: Cc1cc(Nc2cc(CN3CCOCC3)c3nc(C)c(Cc4ccc(Cl)cc4F)n3n2)n[nH]1 [gandotinib]
Summary of the method: as §1

tozasertib = compound: Cc1cc(Nc2cc(N3CCN(C)CC3)nc(Sc3ccc(NC(=O)C4CC4)cc3)n2)n[nH]1 [tozasertib]
Summary of the method: as §1

doramapimod = compound: Cc1ccc(-n2nc(C(C)(C)C)cc2NC(=O)Nc2ccc(OCCN3CCOCC3)c3ccccc23)cc1 [doramapimod]
Summary of the method: as §1

bafetinib = compound: Cc1ccc(NC(=O)c2ccc(CN3CC[C@H](N(C)C)C3)c(C(F)(F)F)c2)cc1Nc1nccc(-c2cncnc2)n1 [bafetinib]
Summary of the method: as §1

[6] = compound: Cc1cccc(CC(=O)N2CCc3c2ccc(-c2cn(C)c4ncnc(N)c24)c3F)n1
Summary of the method: as §1

| Target | log2 fold change (alvocidib) | log2 fold change (Tubastatin A) | log2 fold change [1] | log2 fold change (defactinib) | log2 fold change [2] | log2 fold change (encorafenib) | log2 fold change [3] | log2 fold change (alisertib) | log2 fold change [4] | log2 fold change (gefitinib) | log2 fold change (lapatinib) | log2 fold change (pictilisib) | log2 fold change (crizotinib) | log2 fold change [5] | log2 fold change (duvelisib) | log2 fold change (gandotinib) | log2 fold change (tozasertib) | log2 fold change (doramapimod) | log2 fold change (bafetinib) | log2 fold change [6] |
| --- | --- | --- | --- | --- | --- | --- | --- | --- | --- | --- | --- | --- | --- | --- | --- | --- | --- | --- | --- | --- |
| LETM1 (UniProt O95202) | inactive: -0.046 | inactive: -0.033 | inactive: 0.018 | inactive: -0.007 | inactive: -0.027 | inactive: -0.001 | inactive: -0.018 | inactive: -0.022 | inactive: -0.166 | inactive: -0.04 | inactive: -0.001 | inactive: 0.004 | inactive: -0.043 | inactive: 0.015 | inactive: -0.018 | inactive: 0.03 | inactive: 0.005 | inactive: -0.01 | inactive: -0.049 | inactive: -0.085 |
| LRCH4 (UniProt O75427) | inactive: -0.003 | inactive: -0.091 | inactive: -0.009 | inactive: 0 | inactive: -0.01 | inactive: -0.055 | inactive: 0.253 | inactive: -0.163 | inactive: 0.036 | inactive: -0.035 | inactive: -0.055 | inactive: 0.05 | inactive: -0.039 | inactive: 0.042 | inactive: -0.052 | inactive: -0.095 | inactive: 0 | inactive: 0.068 | inactive: 0.022 | inactive: -0.002 |
| LGALS3BP (UniProt Q08380) | inactive: -0.187 |  | inactive: -0.234 | inactive: -0.133 | active: -0.571 | inactive: 0.023 | inactive: 0.082 | inactive: -0.074 | inactive: 0.092 | inactive: 0.019 | inactive: -0.239 |  | inactive: 0.204 | inactive: 0.035 | inactive: -0.149 | inactive: 0.197 | inactive: 0.115 | inactive: -0.087 |  | inactive: 0.53 |
| LSM14A isoform 2 (UniProt Q8ND56) | inactive: 0.009 | inactive: -0.024 | inactive: -0.01 | inactive: 0.053 | inactive: 0.02 | inactive: 0.02 | inactive: -0.036 | inactive: 0.015 | inactive: 0.015 | inactive: -0.038 | inactive: -0.035 | inactive: -0.003 | inactive: 0.089 | inactive: -0.015 | inactive: -0.022 | inactive: 0.048 | inactive: 0.018 | inactive: -0.021 | inactive: 0.038 | inactive: -0.006 |
| LSM10 (UniProt Q969L4) | inactive: -0.052 | inactive: -0.012 | inactive: -0.215 |  | inactive: -0.215 |  |  |  | inactive: 0.121 |  | inactive: 0.079 | inactive: 0.047 |  | inactive: 0.028 | inactive: -0.116 | inactive: 0.027 |  |  | inactive: -0.031 | inactive: 0.022 |
| LRP8 (UniProt Q14114) | inactive: -0.133 | inactive: 0.046 |  | inactive: -0.069 |  | inactive: -0.028 | inactive: -0.197 |  | inactive: -0.009 |  | inactive: -0.21 | inactive: -0.207 | inactive: -0.064 | inactive: -0.031 |  | inactive: -0.033 | inactive: -0.019 | inactive: -0.035 | inactive: 0.034 | inactive: 0.102 |
| LEF1 (UniProt Q9UJU2) | inactive: -0.013 | inactive: -0.303 |  | inactive: 0.029 |  |  |  |  |  |  |  |  | inactive: -0.023 | inactive: 0.22 |  | inactive: -0.078 |  | inactive: 0.025 |  | inactive: -0.267 |
| LNX2 (UniProt Q8N448) | inactive: 0.053 |  | inactive: 0.047 | inactive: -0.053 | inactive: 0.156 | inactive: -0.006 | inactive: 0.323 | inactive: 0.022 |  | inactive: -0.007 |  | inactive: 0.062 |  | inactive: -0.031 | inactive: -0.277 | inactive: -0.167 | inactive: 0.123 |  | inactive: -0.044 | inactive: 0.173 |
| LNPEP (UniProt Q9UIQ6) | inactive: -0.013 | inactive: 0.02 | inactive: 0.019 | inactive: 0.028 | inactive: 0.006 | inactive: 0.035 | inactive: -0.101 | inactive: -0.007 | inactive: 0.013 | inactive: 0.013 | inactive: 0.008 | inactive: -0.031 | inactive: -0.02 | inactive: -0.055 | inactive: 0.001 | inactive: 0.043 | inactive: -0.022 | inactive: 0.013 | inactive: -0.013 | inactive: 0 |
| LDHA (UniProt F5GZQ4) | inactive: 0.09 | inactive: 0.147 |  |  |  |  |  | inactive: -0.179 | inactive: 0.059 | inactive: -0.278 | inactive: -0.261 | inactive: -0.43 |  | inactive: -0.08 |  | inactive: 0.034 |  |  | inactive: -0.182 | inactive: -0.002 |
| LRP10 (UniProt Q7Z4F1) | inactive: -0.084 | inactive: 0.062 | inactive: 0.215 |  | inactive: -0.022 | inactive: 0.313 | inactive: -0.072 |  |  |  |  | inactive: -0.006 |  | inactive: 0.072 | inactive: -0.008 | inactive: -0.133 | inactive: -0.144 |  | inactive: -0.191 | inactive: -0.089 |

2 records drawn at random from those above:

| Target | log2 fold change (alvocidib) | log2 fold change (Tubastatin A) | log2 fold change [1] | log2 fold change (defactinib) | log2 fold change [2] | log2 fold change (encorafenib) | log2 fold change [3] | log2 fold change (alisertib) | log2 fold change [4] | log2 fold change (gefitinib) | log2 fold change (lapatinib) | log2 fold change (pictilisib) | log2 fold change (crizotinib) | log2 fold change [5] | log2 fold change (duvelisib) | log2 fold change (gandotinib) | log2 fold change (tozasertib) | log2 fold change (doramapimod) | log2 fold change (bafetinib) | log2 fold change [6] |
| --- | --- | --- | --- | --- | --- | --- | --- | --- | --- | --- | --- | --- | --- | --- | --- | --- | --- | --- | --- | --- |
| LNX2 (UniProt Q8N448) | inactive: 0.053 |  | inactive: 0.047 | inactive: -0.053 | inactive: 0.156 | inactive: -0.006 | inactive: 0.323 | inactive: 0.022 |  | inactive: -0.007 |  | inactive: 0.062 |  | inactive: -0.031 | inactive: -0.277 | inactive: -0.167 | inactive: 0.123 |  | inactive: -0.044 | inactive: 0.173 |
| LGALS3BP (UniProt Q08380) | inactive: -0.187 |  | inactive: -0.234 | inactive: -0.133 | active: -0.571 | inactive: 0.023 | inactive: 0.082 | inactive: -0.074 | inactive: 0.092 | inactive: 0.019 | inactive: -0.239 |  | inactive: 0.204 | inactive: 0.035 | inactive: -0.149 | inactive: 0.197 | inactive: 0.115 | inactive: -0.087 |  | inactive: 0.53 |
